Measurements taken from PMC8610266.
These are yes or no findings as the source states them, for the method shown. Some entries that bind do so weakly or less than the wild type. Where a sequence is shown, tags or fusion partners need not be part of it.

T1: Nog1-TAP (LSU biogenesis factor Nog1 chromosomally encoded in fusion with a tandem affinity purification tag) (S. cerevisiae) (UniProt Q02892)
T1 sequence: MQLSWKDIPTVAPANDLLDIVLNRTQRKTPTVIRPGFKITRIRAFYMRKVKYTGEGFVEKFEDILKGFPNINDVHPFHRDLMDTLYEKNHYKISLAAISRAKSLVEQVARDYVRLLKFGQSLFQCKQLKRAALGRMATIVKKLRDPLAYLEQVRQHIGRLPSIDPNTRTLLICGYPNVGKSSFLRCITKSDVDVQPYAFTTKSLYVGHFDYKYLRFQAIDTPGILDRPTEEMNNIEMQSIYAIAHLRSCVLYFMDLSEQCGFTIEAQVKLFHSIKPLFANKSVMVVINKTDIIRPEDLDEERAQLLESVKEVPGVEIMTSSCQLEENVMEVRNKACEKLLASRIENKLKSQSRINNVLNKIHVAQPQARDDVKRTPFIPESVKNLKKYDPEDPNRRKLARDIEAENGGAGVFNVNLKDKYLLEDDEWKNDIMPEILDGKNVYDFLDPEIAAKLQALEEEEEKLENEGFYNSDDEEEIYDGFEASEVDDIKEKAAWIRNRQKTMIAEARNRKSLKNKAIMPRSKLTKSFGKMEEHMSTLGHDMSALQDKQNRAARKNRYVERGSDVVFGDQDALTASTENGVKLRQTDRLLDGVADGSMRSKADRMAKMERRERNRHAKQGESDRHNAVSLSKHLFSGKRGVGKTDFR

B1: Rpf1 (protein, UniProt P38805 1-295)
chain: MALGNEINITNKLKRQEIFADIKHEKNKERHTMRRKRAKEERENPELREQRLKENVTQTIENTRVYDETINKEVEGDEDDLMRYFNSNSNEPPKIFLTTNVNAKKSAYEFANILIEILPNVTFVKRKFGYKLKEISDICIKRNFTDIVIINEDKKKVTGLTFIHLPEGPTFYFKLSSFVEVKKIVGHGRPTSHIPELILNNFQTRLGQTVGRLFQSILPQNPDIEGRQVITLHNQRDYIFFRRHRYVFKDNERVGLQELGPQFTLKLKRLQRGIKEETEWEHKPEMDKEKKKFYL
B2: Ebp2 (protein, UniProt P36049 1-427)
chain: MAKGFKLKELLSHQKEIEKAEKLENDLKKKKSQELKKEEPTIVTASNLKKLEKKEKKADVKKEVAADTEEYQSQALSKKEKRKLKKELKKMQEQDATEAQKHMSGDEDESGDDREEEEEEEEEEEGRLDLEKLAKSDSESEDDSESENDSEEDEDVVAKEESEEKEEQEEEQDVPLSDVEFDSDADVVPHHKLTVNNTKAMKHALERVQLPWKKHSFQEHQSVTSETNTDEHIKDIYDDTERELAFYKQSLDAVLVARDELKRLKVPFKRPLDYFAEMVKSDEHMDKIKGKLIEEASDKKAREEARRQRQLKKFGKQVQNATLQKRQLEKRETLEKIKSLKNKRKHNEIDHSEFNVGVEEEVEGKRFDRGRPNGKRAAKNAKYGQGGMKRFKRKNDATSSADVSGFSSRKMKGKTNRPGKSRRARRF
B3: Brx1 (protein, UniProt Q08235 1-291)
chain: MSSIYKALAGKSKDNKSEKKQGNVKQFMNKQRTLLISSRGVNYRHRHLIQDLSGLLPHSRKEPKLDTKKDLQQLNEIAELYNCNNVLFFEARKHQDLYLWLSKPPNGPTIKFYIQNLHTMDELNFTGNCLKGSRPVLSFDQRFESSPHYQLIKELLVHNFGVPPNARKSKPFIDHVMSFSIVDDKIWVRTYEISHSTKNKEEYEDGEEDISLVEIGPRFVMTVILILEGSFGGPKIYENKQYVSPNVVRAQIKQQAAEEAKSRAEAAVERKIKRRENVLAADPLSNDALFK
B4: Cgr1 (protein, UniProt P53188 1-120)
chain: MVNETGESQKAAKGTPVSGKVWKAEKTPLRAKSRVVKNKKLTSWELKKQKRLEDKQFKERLKALKDEKEEARQAKITMLKERREKKEENERYERLAAKMHAKKVERMRRREKRNKALKER
B5: Nsa1 (protein, UniProt P53136 1-463)
chain: MRLLVSCVDSGSIKEVLCNIGTDTSVQSALQPFHVAPHLAEGLKAYVDRMWVISEDEAILARNSGVVELVKISKHLKENEALQVDPKGESKNEKSLSDDLPKFDISEFEITSSVSDLFDDAKLESLSSKSVKRTKLVDGFVTLCPIKKDSSNNTFVAATKSGLLHIIKKGEDKKLIKLASLGLKAPVEFLQLYDLEDTDTDKYIFAYGGEENLIKLVEIDSSFQSLKQIWEAKNVKNDRLDMRVPVWPMALRFLEPSPGKTEKGKLNYQFAAITRWSHLTKYSTQHGRKPFAQIDLLPNREPLSQMEVFDAKGENVVSSLGNFQSETFNELNVITTDYKKNVFKFDGNGRMLGKVGRDDITGSSTYIHVHDGKYLLQGGLDRYVRIFDIKTNKMLVKVYVGSRINFIVMLDDVEIEMPLSPSAKAAKGKQKRKVTELEEDADELWNKLEGKVAASKASKKSKI
B6: rpL5 (protein, UniProt P26321 1-297)
chain: MAFQKDAKSSAYSSRFQTPFRRRREGKTDYYQRKRLVTQHKAKYNTPKYRLVVRFTNKDIICQIISSTITGDVVLAAAYSHELPRYGITHGLTNWAAAYATGLLIARRTLQKLGLDETYKGVEEVEGEYELTEAVEDGPRPFKVFLDIGLQRTTTGARVFGALKGASDGGLYVPHSENRFPGWDFETEEIDPELLRSYIFGGHVSQYMEELADDDEERFSELFKGYLADDIDADSLEDIYTSAHEAIRADPAFKPTEKKFTKEQYAAESKKYRQTKLSKEERAARVAAKIAALAGQQ
B7: Rlp7 (protein, UniProt P40693 1-322)
chain: MSSTQDSKAQTLNSNPEILLRKRRNADRTRIERQELAKKKREEQIKKKRSNKNKFVRAESIVAKTLATSREKERIKRVSILEDKKAKNETQHIASGKDFILKITEKANGAEENSVDLEETEEEEDDGLIREKTTYDGKPALLFIVRVRGPLAVNIPNKAFKILSLLRLVETNTGVFVKLTKNVYPLLKVIAPYVVIGKPSLSSIRSLIQKRGRIIYKGENEAEPHEIVLNDNNIVEEQLGDHGIICVEDIIHEIATMGESFSVCNFFLQPFKLNREVSGFGSLNRLRKIKQREAESRTRQFSNAATAPVIEVDIDSLLAKLN
B8: Cic1 (protein, UniProt P38779 1-376)
chain: MAKKSNSKKSTPVSTPSKEKKKVIEKKSSTAIPRERVIKAVNELIKFTSKPQDENNEEGNNGKKNLLEDDEEELKKDLQLIVVNNKSFTGTSKSFKLKLLNVKHSFYKPWKEASATAVKDFKVLLILKDSDIKKVSEDDLFDQLDSEGIKVDEIICGKDLKTVYKAYEARNAFISQFSLILADDSIVTSLPKLMGGKAYNKVETTPISIRTHANKEFSLTTLTNNIKKVYMNQLPVKLPRGTTLNVHLGNLEWLRPEEFVDNVELISEQLIKAYQIRSIFIKTNRSPVLPLYYNQDVLDELEAKKDKIEETHEDDMVTIDGVQVHLSTFNKGLMEIANPSELGSIFSKQINNAKKRSSSELEKESSESEAVKKAKS
B9: Rrp1 (protein, UniProt P35178 1-278)
chain: METSNFVKQLSSNNRKTRVNALEALKKYLTAKQFKENKQIEFNKLWKGLYYAMWFSDRPRPQQRLANELGELHGLYFDPKDNSTADELTTNDKAFIKFSRGFWKVMCFEWFNIDRYRLDKYLLLIRRVLFSQLKYLQSRNWDKKLVDEYIKKVLRWLPLSGSPKVYTGIPIHIVDILLDEWERLLKDGDEDDEDEENKEEEMRKIAESAKKTPLADVIAIFQDIVADYNNSKVLREKIKEDLFSDTRLVSWDILEGETQHNDSSNESEEEEEEEWKGF
B10: Mak16 (protein, UniProt P10962 1-306)
chain: MSDEIVWQVINQSFCSHRIKAPNGQNFCRNEYNVTGLCTRQSCPLANSKYATVKCDNGKLYLYMKTPERAHTPAKLWERIKLSKNYTKALQQIDEHLLHWSKFFRHKCKQRFTKLTQVMITERRLALREEERHYVGVAPKVKRREQNRERKALVAAKIEKAIEKELMDRLKSGAYGDKPLNVDEKVWKKIMGQMEEENSQDEEEDWDEEEESDDGEVEYVADDGEGEYVDVDDLEKWLADSDREASSASESESDSESESDSDSDEENKNSAKRRKKGTSAKTKRPKVEIEYEEEHEVQNAEQEVAQ
B11: Ytm1 (protein, UniProt Q12024 1-460)
chain: MTEDKSQVKIRFFTREKDELLHVQDTPMYAPISLKRYGLSEIVNHLLGSEKPVPFDFLIEGELLRTSLHDYLTKKGLSSEASLNVEYTRAILPPSYLNSFSNEDWVSSLDVGDGSKHIISGSYDGIVRTWDLSGNVQKQYSGHSGPIRAVKYISNTRLVSAGNDRTLRLWKTKNDDLKLTSQQQAQEDDDDEVNIEDGKTLAILEGHKAPVVSIDVSDNSRILSASYDNSIGFWSTIYKEMTVVDPLEDINNPNNKISTAARKRRKLTMKDGTIRRRAPLSLLESHTAPVEQVIFDSTDNTVGYSVSQDHTIKTWDLVTARCIDTRTTSYSLLSIAQLSTLNLLACGSSARHITLHDPRVGASSKVTQQQLIGHKNFVSSLDTCPENEYILCSGSHDGTVKVWDVRSTSPMYTITREDKSVQKGVNDKVFAVKWAEKVGIISAGQDKKIQINKGDNIFKN
B12: Erb1 (protein, UniProt Q04660 1-807)
chain: MMAKNNKTTEAKMSKKRAASEESDVEEDEDKLLSVDGLIDAEASESDEDDDEYESAVEEKESSSDKEAQDDSDDDSDAELNKLLAEEEGDGEEDYDSSEFSDDTTSLTDRLSGVKLQTIVDPNIYSKYADGSDRIIKPEINPVYDSDDSDAETQNTIGNIPLSAYDEMPHIGYDINGKRIMRPAKGSALDQLLDSIELPEGWTGLLDKNSGSSLNLTKEELELISKIQRNEQTDDSINPYEPLIDWFTRHEEVMPLTAVPEPKRRFVPSKNEAKRVMKIVRAIREGRIIPPKKLKEMKEKEKIENYQYDLWGDSTETNDHVMHLRAPKLPPPTNEESYNPPEEYLLSPEEKEAWENTEYSERERNFIPQKYSALRKVPGYGESIRERFERSLDLYLAPRVRKNKLNIDPNSLIPELPSPKDLRPFPIRCSTIYAGHKGKVRTLSIDPSGLWLATGSDDGTVRVWEILTGREVYRTTLIDDEENPDYHIECIEWNPDANNGILAVAVGENIHLIVPPIFGYDIENNGKTKIEDGFGYDTFGTVKKSNLEVNENGDGDEDGENESAKNAVKKQVAQWNKPSQKQLEKDICITISCKKTVKKLSWHRKGDYFVTVQPDSGNTSVLIHQVSKHLTQSPFKKSKGIIMDAKFHPFKPQLFVCSQRYVRIYDLSQQILVKKLLPGARWLSKIDIHPRGDNLIASSFDKRVLWHDLDLASTPYKTLRYHEKAVRSVNFHKKLPLFSSAADDGTIHVFHATVYDDMMKNPMIVPLKKLTGHKVINSLGVLDAIWHPREAWLFSAGADNTARLWTT

Target: T1, Nog1-TAP (LSU biogenesis factor Nog1 chromosomally encoded in fusion with a tandem affinity purification tag) (S. cerevisiae)
Experiment: cryo-EM structure; LSU precursor particles (with pre-rRNA) associated with TAP tagged Nog1, purified in one step on rabbit IgG magnetic beads from yeast extract in buffer A200 (200 mM potassium chloride, 20 mM Tris pH8, 5 mM magnesium acetate), eluted with TEV protease; single particle cryo-EM, maps of sub-nanometre resolution, models by flexible fitting of published models; control strain Y1877 and strains with expression of rpL2, rpL25 or rpL34 shut down for 4 h in glucose

Binder	binding
B1	binds
B2	binds
B3	binds
B4	binds
B5	binds
B6	binds
B7	binds
B8	binds
B9	binds
B10	binds
B11	binds
B12	binds
